Assay results taken from article PMC12311725, “Identification of Ginsentide-like Peptides from Cacao Beans with Oxidative Stress Protection” (ACS Omega, 2025).
These are yes or no findings as the source states them, for the method shown. Binding seen in cells or lysates may run through a third protein. A yes stands for co-enrichment or nearness to the bait. Other partners may have been found.

The chains behind the UniProt entries cited, without tags or fusion partners.
UniProt O43813: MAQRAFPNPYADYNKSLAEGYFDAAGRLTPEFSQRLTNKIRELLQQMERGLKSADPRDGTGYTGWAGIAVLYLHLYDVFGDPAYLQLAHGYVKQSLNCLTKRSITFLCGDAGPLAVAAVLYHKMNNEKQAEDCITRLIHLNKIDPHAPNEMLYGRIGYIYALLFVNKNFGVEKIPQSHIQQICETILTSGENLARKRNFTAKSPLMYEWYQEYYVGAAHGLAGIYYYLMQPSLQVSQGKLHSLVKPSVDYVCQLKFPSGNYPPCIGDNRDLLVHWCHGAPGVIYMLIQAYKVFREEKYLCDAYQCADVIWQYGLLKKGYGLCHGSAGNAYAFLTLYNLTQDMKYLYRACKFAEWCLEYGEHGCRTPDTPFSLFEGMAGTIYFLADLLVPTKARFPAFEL
UniProt Q13885: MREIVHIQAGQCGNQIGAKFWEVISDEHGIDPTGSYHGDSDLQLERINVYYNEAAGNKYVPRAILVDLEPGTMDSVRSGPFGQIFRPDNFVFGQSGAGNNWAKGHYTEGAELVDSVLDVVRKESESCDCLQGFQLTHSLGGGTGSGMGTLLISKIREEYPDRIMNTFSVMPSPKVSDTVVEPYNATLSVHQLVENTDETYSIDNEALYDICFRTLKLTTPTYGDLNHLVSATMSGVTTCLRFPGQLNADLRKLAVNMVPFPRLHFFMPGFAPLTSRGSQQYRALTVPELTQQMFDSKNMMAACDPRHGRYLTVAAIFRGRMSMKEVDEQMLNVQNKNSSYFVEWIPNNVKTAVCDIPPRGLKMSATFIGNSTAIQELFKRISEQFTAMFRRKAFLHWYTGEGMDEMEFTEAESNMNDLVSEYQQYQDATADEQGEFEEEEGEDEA
UniProt Q9BVA1: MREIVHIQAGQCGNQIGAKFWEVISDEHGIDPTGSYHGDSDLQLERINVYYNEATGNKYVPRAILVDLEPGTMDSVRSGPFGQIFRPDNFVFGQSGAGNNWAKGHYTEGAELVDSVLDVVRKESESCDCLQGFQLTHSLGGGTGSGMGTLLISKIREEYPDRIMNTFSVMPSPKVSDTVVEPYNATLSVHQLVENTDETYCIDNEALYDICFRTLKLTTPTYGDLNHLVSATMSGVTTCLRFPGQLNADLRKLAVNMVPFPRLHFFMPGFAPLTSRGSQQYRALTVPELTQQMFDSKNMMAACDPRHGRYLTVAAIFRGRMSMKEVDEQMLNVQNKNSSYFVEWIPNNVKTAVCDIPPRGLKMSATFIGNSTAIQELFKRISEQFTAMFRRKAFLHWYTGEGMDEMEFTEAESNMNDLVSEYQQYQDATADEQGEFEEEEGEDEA

T1: biotinylated cocotide tC1 (Theobroma cacao)
T1 sequence (peptide, K(biotin), biotin on the added N-terminal Lys; oxidatively folded (disulfides)): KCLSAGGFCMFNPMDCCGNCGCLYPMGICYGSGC

B1: ferrochelatase (enzyme, UniProt P22830 55-423)
chain: GAKPQVQPQKRKPKTGILMLNMGGPETLGDVHDFLLRLFLDRDLMTLPIQNKLAPFIAKRRTPKIQEQYRRIGGGSPIKIWTSKQGEGMVKLLDELSPNTAPHKYYIGFRYVHPLTEEAIEEMERDGLERAIAFTQYPQYSCSTTGSSLNAIYRYYNQVGRKPTMKWSTIDRWPTHHLLIQCFADHILKELDHFPLEKRSEVVILFSAHSLPMSVVNRGDPYPQEVSATVQKVMERLEYCNPYRLVWQSKVGPMPWLGPQTDESIKGLCERGRKNILLVPIAFTSDHIETLYELDIEYSQVLAKECGVENIRRAESLNGNPLFSKALADLVHSHIQSNELCSKQLTLSCPLCVNPVCRETKSFFTSQQL

Molecular target: T1, biotinylated cocotide tC1 (Theobroma cacao)
Experiment: affinity purification with mass spectrometry; biotin-tC1 immobilised on NeutrAvidin UltraLink resin; 20 ug HaCaT cell lysate, overnight at 4 C; washed with PBS 10 times; on-resin digestion, LC-MS/MS, label-free quantification against a biotin control (at least 2-fold enrichment, significance >15; CRAPome filtered); only the target purified

Molecule	binding
glutathione S-transferase (LANC1) (from UniProt O43813 1-399) (enzyme)	binds
tubulin beta-2A chain (from UniProt Q13885 1-445)	binds
tubulin beta-2B chain (from UniProt Q9BVA1 1-445)	binds
B1	binds
